Experimental data: PubChem BioAssay AID652243 (Drosophila RNAi Screening Center, 2013)
The screen tested about 24,000 reagents; shown is a random part of those with a known target gene and a result. Over the whole deposit, 246 (1%) got an active call. 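Plates not normalised; calls are printed but the firefly/Renilla ratio behind them is not deposited; fold cut for lowering reported inconsistently.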 Raw values vary from plate to plate and are shown uncorrected. The record does not give: the amount of reagent.

- Aim: 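Fly genes required for human androgen receptor driven transcription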 (primary screen)
- Cells: Drosophila S2R+ cells
- Reagent: long dsRNA against Drosophila genes
- Time to read-out: 72 h (48 h, then 24 h hormone)
- Treatment: synthetic androgen R1881 at 10 nM for 24 h
- Read-out: 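Per-well raw luminescence of the androgen-driven firefly reporter and of the Renilla control, two replicates each, without normalisation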
- Direction: firefly reporter light: higher = more light from androgen-responsive reporter; Renilla control light: higher = more constitutive control signal (cell number, transfection)
- Hit rule: 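Hit when the log firefly-to-Renilla ratio dropped or increased by a fixed fold versus the mean of GFP or LacZ controls across duplicate plates; lowering cut given as 1.5 and as 3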
- Meaning of the calls: active = hit: reporter lowered or raised; inactive = no hit

target gene | DRSC id | firefly reporter light, replicate 1 | firefly reporter light, replicate 2 | Renilla control light, replicate 1 | Renilla control light, replicate 2 | Call
Mrp5 (GeneID 42362) | DRSC15597 | 2.17e5 | 2.55e5 | 2.19e6 | 2.93e6 | inactive
Mrp5 (GeneID 42362) | DRSC15598 | 3.44e5 | 2.82e5 | 1.68e6 | 1.99e6 | inactive
Mrp5 (GeneID 42362) | DRSC25669 | 8.33e5 | 9.11e5 | 1.02e6 | 1.00e6 | inactive
SP1173 (GeneID 38744) | DRSC11277 | 1.14e6 | 1.04e6 | 8.19e5 | 1.30e6 | inactive
CG6034 (GeneID 39974) | DRSC10572 | 2.36e5 | 1.71e5 | 1.64e6 | 1.15e6 | inactive
CG6034 (GeneID 39974) | DRSC27294 | 4.34e5 | 4.90e5 | 5.22e5 | 4.49e5 | inactive
spt4 (GeneID 36387) | DRSC07696 | 8.97e5 | 8.57e5 | 1.80e6 | 1.82e6 | inactive
Gfrl (GeneID 3346162) | DRSC15196 | 2.44e5 | 3.10e5 | 3.60e6 | 2.99e6 | inactive
Gfrl (GeneID 3346162) | DRSC15197 | 68950 | 1.01e5 | 8.08e5 | 8.67e5 | inactive
Gfrl (GeneID 3346162) | DRSC15199 | 2.65e5 | 2.63e5 | 1.84e6 | 3.11e6 | inactive
Gfrl (GeneID 3346162) | DRSC15565 | 1.11e5 | 80935 | 5.29e5 | 5.39e5 | inactive
Gfrl (GeneID 3346162) | DRSC15719 | 2.46e5 | 3.05e5 | 3.51e6 | 3.30e6 | inactive
Gfrl (GeneID 3346162) | DRSC25385 | 6.19e5 | 6.01e5 | 6.80e5 | 5.77e5 | inactive
Gfrl (GeneID 3346162) | DRSC26132 | 2.43e5 | 2.16e5 | 6.56e5 | 5.13e5 | inactive
Gfrl (GeneID 3346162) | DRSC27810 | 5.58e5 | 6.02e5 | 3.67e5 | 4.84e5 | inactive
Gfrl (GeneID 3346162) | DRSC28808 | 3.46e5 | 4.73e5 | 1.86e6 | 1.83e6 | inactive
Rpp14b (GeneID 43578) | DRSC15063 | 1.91e5 | 2.14e5 | 2.08e6 | 2.91e6 | inactive
Tmtc1 (GeneID 33455) | DRSC00151 | 2.63e5 | 1.44e5 | 6.16e5 | 3.24e5 | inactive
RpL23 (GeneID 37628) | DRSC04648 | 97459 | 79132 | 7.81e5 | 5.85e5 | inactive
CG2145 (GeneID 32027) | DRSC19835 | 1.04e5 | 1.18e5 | 8.08e5 | 6.46e5 | inactive
CG2145 (GeneID 32027) | DRSC27564 | 3.46e5 | 2.49e5 | 7.52e5 | 8.44e5 | inactive
Faa (GeneID 45577) | DRSC08451 | 1.26e6 | 9.78e5 | 1.99e6 | 1.09e6 | inactive
Fancl (GeneID 41231) | DRSC14550 | 79320 | 1.23e5 | 1.49e6 | 1.59e6 | inactive
Ccs (GeneID 46035) | DRSC06692 | 2.85e5 | 2.20e5 | 1.42e6 | 1.34e6 | inactive

Records above whose target name starts with S or s:
target gene | DRSC id | firefly reporter light, replicate 1 | firefly reporter light, replicate 2 | Renilla control light, replicate 1 | Renilla control light, replicate 2 | Call
SP1173 (GeneID 38744) | DRSC11277 | 1.14e6 | 1.04e6 | 8.19e5 | 1.30e6 | inactive
spt4 (GeneID 36387) | DRSC07696 | 8.97e5 | 8.57e5 | 1.80e6 | 1.82e6 | inactive
